PubChem BioAssay AID1224826 | NIAID | 2016
Assay: 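Knock-downs that raise or lower Tnf reporter signal after endotoxin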 (primary screen). Cells: RAW264.7 G9 macrophages from mouse bearing reporters for p65 (GFP) and the Tnf promoter (mCherry). Reagent: siRNA pool against mouse genes, 100 nM. Duration: 16 h of LPS stimulation, after 2 days of siRNA transfection. Conditions: bacterial lipopolysaccharide (Salmonella minnesota R595), 10 ng/ml. Measurement: 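Nuclear mCherry signal of the Tnf promoter reporter measured by imaging after background removal, scaled to each plate median and turned into robust z-scores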. Scale: Tnf reporter robust z-score: higher = stronger Tnf promoter reporter signal after LPS. Rule for the call: 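Called active when robust z-score is at most -1.3, matching the median of the Tlr4 knock-down control, or over 3; control wells and wells with under 50 cells never active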. Meaning of the calls: active = Tnf reporter clearly lowered or raised; inactive = no clear change in Tnf reporter.
The whole screen tested about 17,000 reagents; shown is an unselected part. About 1,110 of them (6.6%) count as active. 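Active means lowered or raised reporter signal; replicate intensities are raw and not normalised per plate.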 Further read-outs or replicates are left out here. No sequences are given here.

Silencing of Pear1 (platelet endothelial aggregation receptor 1) resulted in: Tnf reporter robust z-score 0.15; fewer than 50 cells in well enough cells in well; inactive.
Spry1 (sprouty RTK signaling antagonist 1) gave Tnf reporter robust z-score -0.7; fewer than 50 cells in well enough cells in well; inactive.
With knock-down of Mkx (mohawk homeobox), the screen gave fewer than 50 cells in well fewer than 50 cells per well; well left out of calls; inactive.
Knock-down of Sugct (succinyl-CoA glutarate-CoA transferase) came out at: Tnf reporter robust z-score -0.35; fewer than 50 cells in well enough cells in well; inactive.
Lamb1 (laminin B1) showed Tnf reporter robust z-score -0.82; fewer than 50 cells in well enough cells in well; inactive.
Silencing of Slc34a1 resulted in: fewer than 50 cells in well fewer than 50 cells per well; well left out of calls; inactive.
Against Ube2v2 (ubiquitin-conjugating enzyme E2 variant 2), the values are Tnf reporter robust z-score 0.85; fewer than 50 cells in well enough cells in well; inactive.
Against Ap5s1 (adaptor-related protein 5 complex, sigma 1 subunit) the deposit lists fewer than 50 cells in well fewer than 50 cells per well; well left out of calls; inactive.
After knock-down of Mtres1 (mitochondrial transcription rescue factor 1), the screen gave fewer than 50 cells in well fewer than 50 cells per well; well left out of calls; inactive.
Depletion of Or4c1 (olfactory receptor family 4 subfamily C member 1) gave: Tnf reporter robust z-score -1.32; fewer than 50 cells in well enough cells in well; active.
With knock-down of Mfn1 (mitofusin 1) the results were Tnf reporter robust z-score -0.87; fewer than 50 cells in well enough cells in well; inactive.
Silencing of Pantr1 resulted in: fewer than 50 cells in well fewer than 50 cells per well; well left out of calls; inactive.
